Assay [1] addresses endogenous Fyn of HEK cells (human) (UniProt P06241). The assay is described as follows: co-immunoprecipitation, HEK cells.
Assay [2] deals with Fyn, endogenous, mouse (glomerular extracts) (mouse) (UniProt P39688). The experiment in a line: cross-immunoprecipitation, glomerular extracts of Tg(+) mice.

Protein sequences, listed by entry. Tags and fused reporters are not part of them. Lines headed by an entry give the natural chain unless they say otherwise; changes in a name come on top. Residues count along the entry.
UniProt P06241, residues 2-537: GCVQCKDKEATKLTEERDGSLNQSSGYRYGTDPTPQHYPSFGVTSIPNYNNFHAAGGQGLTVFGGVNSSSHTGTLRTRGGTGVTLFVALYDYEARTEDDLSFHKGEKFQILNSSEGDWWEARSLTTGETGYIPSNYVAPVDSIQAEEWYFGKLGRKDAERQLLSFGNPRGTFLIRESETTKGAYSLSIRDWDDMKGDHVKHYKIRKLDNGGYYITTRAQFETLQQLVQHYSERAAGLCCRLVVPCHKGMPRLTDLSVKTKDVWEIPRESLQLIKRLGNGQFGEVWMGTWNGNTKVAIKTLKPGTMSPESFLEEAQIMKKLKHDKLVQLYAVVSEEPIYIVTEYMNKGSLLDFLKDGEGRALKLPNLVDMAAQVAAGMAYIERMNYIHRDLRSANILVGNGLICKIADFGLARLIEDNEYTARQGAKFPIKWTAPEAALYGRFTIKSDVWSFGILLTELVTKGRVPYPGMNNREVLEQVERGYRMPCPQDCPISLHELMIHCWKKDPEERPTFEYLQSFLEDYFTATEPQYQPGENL
UniProt P39688, residues 2-537: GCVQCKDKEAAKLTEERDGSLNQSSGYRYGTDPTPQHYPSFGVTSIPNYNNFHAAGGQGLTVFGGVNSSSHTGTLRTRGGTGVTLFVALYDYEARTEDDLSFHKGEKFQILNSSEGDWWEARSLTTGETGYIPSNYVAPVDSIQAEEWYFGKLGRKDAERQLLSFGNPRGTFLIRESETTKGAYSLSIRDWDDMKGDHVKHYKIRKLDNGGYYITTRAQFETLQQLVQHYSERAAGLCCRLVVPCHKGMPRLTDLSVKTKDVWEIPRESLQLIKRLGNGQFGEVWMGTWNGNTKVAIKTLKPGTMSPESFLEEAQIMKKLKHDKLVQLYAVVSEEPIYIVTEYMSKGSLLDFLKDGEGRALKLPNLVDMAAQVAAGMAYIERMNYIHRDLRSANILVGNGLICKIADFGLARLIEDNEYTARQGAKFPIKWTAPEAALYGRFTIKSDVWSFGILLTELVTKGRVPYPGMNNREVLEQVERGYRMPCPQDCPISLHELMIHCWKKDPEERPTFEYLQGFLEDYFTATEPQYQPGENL
UniProt Q8IY22: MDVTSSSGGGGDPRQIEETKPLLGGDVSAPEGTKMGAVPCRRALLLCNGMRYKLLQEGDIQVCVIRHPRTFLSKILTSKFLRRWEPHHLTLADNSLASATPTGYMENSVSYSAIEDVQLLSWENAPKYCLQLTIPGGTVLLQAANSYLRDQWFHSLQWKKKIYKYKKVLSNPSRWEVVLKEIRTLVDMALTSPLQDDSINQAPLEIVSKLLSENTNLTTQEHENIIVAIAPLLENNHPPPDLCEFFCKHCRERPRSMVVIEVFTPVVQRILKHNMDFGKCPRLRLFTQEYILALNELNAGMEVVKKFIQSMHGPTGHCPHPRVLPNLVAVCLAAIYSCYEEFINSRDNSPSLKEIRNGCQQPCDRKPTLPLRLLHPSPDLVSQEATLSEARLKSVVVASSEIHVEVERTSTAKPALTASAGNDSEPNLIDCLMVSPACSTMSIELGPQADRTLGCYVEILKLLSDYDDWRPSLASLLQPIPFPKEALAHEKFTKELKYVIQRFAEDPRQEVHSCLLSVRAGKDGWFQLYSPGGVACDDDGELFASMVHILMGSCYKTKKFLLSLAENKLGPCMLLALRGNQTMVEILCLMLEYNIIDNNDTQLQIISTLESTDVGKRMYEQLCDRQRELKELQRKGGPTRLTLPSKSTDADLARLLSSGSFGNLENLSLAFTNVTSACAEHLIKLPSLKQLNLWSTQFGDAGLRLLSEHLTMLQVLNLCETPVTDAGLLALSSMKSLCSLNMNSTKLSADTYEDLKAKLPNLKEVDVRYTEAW

No constants are given. Whether binding was seen depends on the method and setting. For some assays here: Binding seen in cells or lysates may run through a third protein. Some entries that bind do so weakly or less than the wild type.

For the substance “C-mip protein (c-maf inducing protein), human, full-length (from UniProt Q8IY22 1-773)”, the binding entry in assay [1] and in assay [2] was “binds” throughout.

Source of the values: US20120083519A1.
